Structures can show the parent of a compound that is named as a salt.
Tested on: cognitively intact healthy participants
Conditions: in vivo, iv
Excerpt: Cambridge Neuropsychological Test Automated Battery (CANTAB-AD):
Two main challenges are often encountered with many of the newer neurocognitive tasks. First is the lack of standardization in administering such tasks. Second is the lack of information on their psychometric properties. The Cambridge Neuropsychological Test Automated Battery (CANTAB) system addresses both of these challenges (www.cambridgecognition.com). The design of the CANTAB is based on well-established neurocognitive experimental paradigms. It was designed initially to provide componential analysis of cognitive functions in the elderly and individuals with dementia. The CANTAB Eclipse consists of 22 tasks that assess neurocognitive processes within a wide range of relatively independent cognitive domains, including visual memory, attention, working memory and problem solving. Each of the tasks is graded, allowing the assessment of patients with varying level of impairment. Increasing the difficulty of a task avoids a ceiling effect. Conversely, decreasing the difficulty of a task avoids a floor effect and allows the distinction between specific and generalized deficits (a concern discussed above). The tasks are automated and therefore testing is given in a standardized manner with a standardized feedback about accuracy and speed. […]

**Q.** With CN1[C@@H]2C[C@@H](OC(=O)[C@H](CO)c3ccccc3)C[C@H]1[C@@H]1O[C@@H]12 [scopolamine, Scopolamine Hydrobromide] as the compound, how does the “rti_5cmt difference score (Reaction Time, Five-choice movement time)” value read?
**A.** 132.8 milliseconds

**Q.** And the “rti_5crt difference score (Reaction Time, Five-choice reaction time)” value?
**A.** 107.7 milliseconds

From patent US20220026427A1, “CELL BASED ASSAYS AND KITS FOR ASSESSING SERUM CHOLINERGIC RECEPTOR ACTIVITY” (Centre for Addiction and Mental Health, priority 2017, published 2022)
